Results are given in words; binding and its absence hold for the method and conditions named. In cells and extracts the contact can be indirect. A yes stands for co-enrichment or nearness to the bait. Other partners may have been found.
Biological target: GFP-Ypt7p (Rab7-like Ypt7p tagged with the green fluorescent protein, from the GFP-MYC-YPT7 strain) (S. cerevisiae) (UniProt P32939)
Assay: affinity purification with mass spectrometry; proteins of purified lipid droplets (15 ug) extracted in lysis buffer (20 mM HEPES, 150 mM NaCl, 10% glycerol, 1% NP 40), incubated 2 h at 4°C with GFP-trap magnetic particles (GFPm); eluted with glycine pH 2.8, then LDS; bands absent from the controls cut out of the SDS gel and analysed by …

By UniProt entry, the sequences of proteins in these tests, tags left out.
UniProt P32939: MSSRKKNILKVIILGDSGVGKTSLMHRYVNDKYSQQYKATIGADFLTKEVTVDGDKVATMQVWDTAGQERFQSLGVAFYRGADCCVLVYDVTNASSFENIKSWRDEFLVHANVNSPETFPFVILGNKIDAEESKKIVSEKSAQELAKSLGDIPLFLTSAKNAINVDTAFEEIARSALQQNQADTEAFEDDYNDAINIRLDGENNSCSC

B1: Gdi1p (protein, UniProt P39958 1-451)
chain: MDQETIDTDYDVIVLGTGITECILSGLLSVDGKKVLHIDKQDHYGGEAASVTLSQLYEKFKQNPISKEERESKFGKDRDWNVDLIPKFLMANGELTNILIHTDVTRYVDFKQVSGSYVFKQGKIYKVPANEIEAISSPLMGIFEKRRMKKFLEWISSYKEDDLSTHQGLDLDKNTMDEVYYKFGLGNSTKEFIGHAMALWTNDDYLQQPARPSFERILLYCQSVARYGKSPYLYPMYGLGELPQGFARLSAIYGGTYMLDTPIDEVLYKKDTGKFEGVKTKLGTFKAPLVIADPTYFPEKCKSTGQRVIRAICILNHPVPNTSNADSLQIIIPQSQLGRKSDIYVAIVSDAHNVCSKGHYLAIISTIIETDKPHIELEPAFKLLGPIEEKFMGIAELFEPREDGSKDNIYLSRSYDASSHFESMTDDVKDIYFRVTGHPLVLKQRQEQEKQ
binding: binds

Reference: article PMC4571102
